Data as given in publication doi:10.1101/2021.07.09.451853.

By UniProt entry, the sequences of proteins in these tests, tags left out. Where a name states a change or a piece, a line headed by the entry shows the natural chain unless it says otherwise.
UniProt Q9SGW5: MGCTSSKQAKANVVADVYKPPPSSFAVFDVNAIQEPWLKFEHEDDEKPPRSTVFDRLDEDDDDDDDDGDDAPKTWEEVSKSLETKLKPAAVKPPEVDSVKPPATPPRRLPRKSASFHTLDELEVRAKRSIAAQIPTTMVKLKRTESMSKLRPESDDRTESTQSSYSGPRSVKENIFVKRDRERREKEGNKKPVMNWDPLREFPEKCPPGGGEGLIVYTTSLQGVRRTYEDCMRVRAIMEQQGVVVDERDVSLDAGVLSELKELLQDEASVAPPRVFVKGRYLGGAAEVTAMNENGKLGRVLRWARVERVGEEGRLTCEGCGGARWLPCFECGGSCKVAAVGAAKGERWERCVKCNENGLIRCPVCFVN

Key:
[1] = molecular target: T1, 14-3-3 CHI:YFP (35S:CHI:YFP) (A. thaliana) (UniProt P42643); test: co-IP
T1 sequence: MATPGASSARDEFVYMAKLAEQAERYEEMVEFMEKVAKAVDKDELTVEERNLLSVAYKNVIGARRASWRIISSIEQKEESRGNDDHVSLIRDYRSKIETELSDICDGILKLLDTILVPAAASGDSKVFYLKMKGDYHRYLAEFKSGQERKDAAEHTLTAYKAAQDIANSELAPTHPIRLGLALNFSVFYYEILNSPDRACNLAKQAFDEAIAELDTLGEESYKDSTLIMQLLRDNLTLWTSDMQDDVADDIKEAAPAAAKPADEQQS

[2] = molecular target: T2, 14-3-3 KAPPA:YFP (35S:KAPPA:YFP) (A. thaliana) (UniProt P48348); test: co-IP
T2 sequence: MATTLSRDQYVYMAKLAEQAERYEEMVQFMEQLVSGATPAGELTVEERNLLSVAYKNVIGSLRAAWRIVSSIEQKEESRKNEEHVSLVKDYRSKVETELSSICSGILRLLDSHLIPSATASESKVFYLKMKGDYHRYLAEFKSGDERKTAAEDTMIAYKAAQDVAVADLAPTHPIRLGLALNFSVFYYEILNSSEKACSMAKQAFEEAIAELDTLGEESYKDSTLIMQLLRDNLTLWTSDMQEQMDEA

[3] = molecular target: T3, 14-3-3 OMEGA:YFP (35S:OMEGA:YFP) (A. thaliana) (UniProt Q01525); test: co-IP
T3 sequence: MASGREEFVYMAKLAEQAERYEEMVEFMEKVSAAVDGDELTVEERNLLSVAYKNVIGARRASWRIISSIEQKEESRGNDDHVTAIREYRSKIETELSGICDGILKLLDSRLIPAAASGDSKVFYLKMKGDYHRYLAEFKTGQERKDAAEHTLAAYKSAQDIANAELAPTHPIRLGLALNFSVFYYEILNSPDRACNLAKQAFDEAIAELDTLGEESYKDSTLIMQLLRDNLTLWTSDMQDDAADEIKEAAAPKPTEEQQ

[4] = molecular target: THRUMIN1 (yeast two-hybrid fusion) (A. thaliana) (UniProt Q9SGW5); test: two-hybrid

binding [1]: no binding
binding [2]: binds
binding [3]: binds
Molecule: THRUMIN1:HA (35S:THRUMIN1:HA) (A. thaliana)

binding [4]: binds
B1: 14-3-3 KAPPA (yeast two-hybrid fusion) (protein, UniProt P48348 1-248)
chain: T2 sequence

No constants are given. Whether binding was seen depends on the method and setting. For some of these results: Binding can be weak; no strength is given. Where a sequence is shown, tags or fusion partners need not be part of it. For some of these results: Binding seen in cells or lysates may run through a third protein. One block for each molecule: values may come before it.
